Chains of the proteins cited; added tags and fusions are not shown. Residues count along the entry.
UniProt P11021, residues 19-654: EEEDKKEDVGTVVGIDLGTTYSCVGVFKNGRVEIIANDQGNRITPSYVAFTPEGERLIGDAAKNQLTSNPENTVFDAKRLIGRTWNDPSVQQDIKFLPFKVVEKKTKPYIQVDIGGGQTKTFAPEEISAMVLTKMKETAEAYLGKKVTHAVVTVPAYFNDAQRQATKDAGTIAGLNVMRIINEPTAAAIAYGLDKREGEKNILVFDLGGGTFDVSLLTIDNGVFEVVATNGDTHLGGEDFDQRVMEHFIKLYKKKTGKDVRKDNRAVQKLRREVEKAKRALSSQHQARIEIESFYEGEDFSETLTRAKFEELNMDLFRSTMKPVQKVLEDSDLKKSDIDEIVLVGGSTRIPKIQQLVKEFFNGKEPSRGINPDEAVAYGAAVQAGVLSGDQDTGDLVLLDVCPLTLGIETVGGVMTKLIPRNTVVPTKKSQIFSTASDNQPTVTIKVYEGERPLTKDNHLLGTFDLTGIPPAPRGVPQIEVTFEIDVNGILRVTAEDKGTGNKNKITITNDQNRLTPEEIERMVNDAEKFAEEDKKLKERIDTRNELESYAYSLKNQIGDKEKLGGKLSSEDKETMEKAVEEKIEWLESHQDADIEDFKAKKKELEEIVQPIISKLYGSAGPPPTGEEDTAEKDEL
UniProt P27824, residues 21-592: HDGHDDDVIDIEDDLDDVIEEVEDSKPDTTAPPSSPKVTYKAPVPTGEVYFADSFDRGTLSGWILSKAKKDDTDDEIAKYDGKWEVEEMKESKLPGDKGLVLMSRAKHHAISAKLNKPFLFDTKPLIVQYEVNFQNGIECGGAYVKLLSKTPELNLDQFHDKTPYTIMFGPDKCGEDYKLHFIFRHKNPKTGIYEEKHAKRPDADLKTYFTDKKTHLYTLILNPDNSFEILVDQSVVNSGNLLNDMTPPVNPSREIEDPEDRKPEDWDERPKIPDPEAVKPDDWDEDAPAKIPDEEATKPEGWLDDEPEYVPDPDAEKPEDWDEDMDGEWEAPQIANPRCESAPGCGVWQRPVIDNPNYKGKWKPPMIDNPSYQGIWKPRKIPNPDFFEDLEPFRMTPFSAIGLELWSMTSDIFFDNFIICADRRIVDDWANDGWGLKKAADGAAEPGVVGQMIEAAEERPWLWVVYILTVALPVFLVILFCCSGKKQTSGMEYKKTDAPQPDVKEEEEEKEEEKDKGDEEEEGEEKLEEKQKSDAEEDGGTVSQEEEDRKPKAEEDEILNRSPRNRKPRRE
UniProt P13498: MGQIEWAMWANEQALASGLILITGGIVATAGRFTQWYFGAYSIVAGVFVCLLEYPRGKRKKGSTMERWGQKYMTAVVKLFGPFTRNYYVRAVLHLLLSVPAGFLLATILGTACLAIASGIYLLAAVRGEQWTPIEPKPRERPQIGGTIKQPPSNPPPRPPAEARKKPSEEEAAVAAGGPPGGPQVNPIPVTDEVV

According to publication PMC4807287:

T1: NADPH oxidase 4 (human NOX4), overexpressed in HEK293 cells (human) (UniProt Q9NPH5)
T1 sequence: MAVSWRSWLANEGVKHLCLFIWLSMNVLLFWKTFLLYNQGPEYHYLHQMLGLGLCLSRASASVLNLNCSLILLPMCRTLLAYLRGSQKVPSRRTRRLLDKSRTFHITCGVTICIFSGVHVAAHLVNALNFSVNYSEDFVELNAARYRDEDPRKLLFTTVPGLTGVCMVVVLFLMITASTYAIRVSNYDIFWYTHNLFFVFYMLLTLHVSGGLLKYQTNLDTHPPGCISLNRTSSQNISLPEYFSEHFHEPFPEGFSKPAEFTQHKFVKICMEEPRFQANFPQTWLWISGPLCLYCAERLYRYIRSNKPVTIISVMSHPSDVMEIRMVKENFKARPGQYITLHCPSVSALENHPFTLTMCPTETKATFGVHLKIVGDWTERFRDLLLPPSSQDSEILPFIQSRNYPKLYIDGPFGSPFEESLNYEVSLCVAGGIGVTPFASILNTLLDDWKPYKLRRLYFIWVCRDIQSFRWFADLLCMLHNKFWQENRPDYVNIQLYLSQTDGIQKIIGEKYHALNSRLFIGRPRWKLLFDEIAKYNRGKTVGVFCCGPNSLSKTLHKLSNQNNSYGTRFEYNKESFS


Experiments:
[1] = target: T1, NADPH oxidase 4 (human NOX4), overexpressed in HEK293 cells (human); assay: affinity purification with mass spectrometry; quantitative SILAC-based Co-IP (qCo-IP): NOX4 antibody covalently linked to magnetic protein G beads; HEK293 (Ctl) and NOX4-HEK293 cells lysed with 1% digitonin (n = 2), or 100,000 x g total membranes solubilised with digitonin 6 g/g protein (n = 3); forward and reverse labelling; threshold log2 ratio >0.5
[2] = target: T1, NADPH oxidase 4 (human NOX4), overexpressed in HEK293 cells (human); assay: as above; remark: listed apart in the source

Molecule | binding [1] | binding [2]
78-kDa glucose-regulated protein (HSPA5/Grp78), endogenous in HEK293 cells (from UniProt P11021 19-654) | binds | 
SERCA2b/ATP2A2 (sarco/endoplasmic reticulum Ca2+-ATPase 2b), endogenous in HEK293 cells (from UniProt P16615-1 1-1042) | binds | 

Next, values leading:

binding [1] | binding [2] | Molecule
binds |  | Calnexin, endogenous in HEK293 cells (from UniProt P27824 21-592)
binds |  | p22phox/CYBA, endogenous in HEK293 cells (from UniProt P13498 1-195)
 | binds | Calmegin (CLGN), endogenous in HEK293 cells (protein, UniProt O14967 20-610) EFMDDDVETEDFEENSEEIDVNESELSSEIKYKTPQPIGEVYFAETFDSGRLAGWVLSKAKKDDMDEEISIYDGRWEIEELKENQVPGDRGLVLKSRAKHHAISAVLAKPFIFADKPLIVQYEVNFQDGIDCGGAYIKLLADTDDLILENFYDKTSYIIMFGPDKCGEDYKLHFIFRHKHPKTGVFEEKHAKPPDVDLKKFFTDRKTHLYTLVMNPDDTFEVLVDQTVVNKGSLLEDVVPPIKPPKEIEDPNDKKPEEWDERAKIPDPSAVKPEDWDESEPAQIEDSSVVKPAGWLDDEPKFIPDPNAEKPDDWNEDTDGEWEAPQILNPACRIGCGEWKPPMIDNPKYKGVWRPPLVDNPNYQGIWSPRKIPNPDYFEDDHPFLLTSFSALGLELWSMTSDIYFDNFIICSEKEVADHWAADGWRWKIMIANANKPGVLKQLMAAAEGHPWLWLIYLVTAGVPIALITSFCWPRKVKKKHKDTEYKKTDICIPQTKGVLEQEEKEEKAALEKPMDLEEEKKQNDGEMLEKEEESEPEEKSEEEIEIIEGQEESNQSNKSGSEDEMKEADESTGSGDGPIKSVRKRRVRKD

Like-named read-outs stand apart in the source and are kept apart here. No constants are given. Whether binding was seen depends on the method and setting. Binding seen in cells or lysates may run through a third protein. Here binding means that the protein was enriched with, or labelled near, the bait; the list need not be complete.
